Article doi:10.1101/2020.01.09.899237
Results are given in words; binding and its absence hold for the method and conditions named.

Protein sequences, listed by entry. Tags and fused reporters are not part of them. Residues count along the entry.
UniProt Q8NHS0, residues 1-77: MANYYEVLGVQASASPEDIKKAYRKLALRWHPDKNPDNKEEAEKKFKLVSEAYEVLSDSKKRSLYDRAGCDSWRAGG

Columns and labels:
[1] = target: DnaJB8 J-domain JD_(1-77) (human) (UniProt Q8NHS0); test: cross-linking
[2] = target: DnaJB8 J-domain JD_(1-77) (human) (UniProt Q8NHS0); test: SEC-MALS

What does the source list for “DnaJB8 J-domain JD_(1-77) (from UniProt Q8NHS0 1-77) (domain or fragment)”?
binding [1]: no binding (tested: 100μM); binding [2]: no binding (tested: 5.0 mg/mL)
